From article PMC4960799
No constants are given. Whether binding was seen depends on the method and setting. Binding seen in cells or lysates may run through a third protein. A result given as binding can be weak or reduced; the word gives no strength.

Chains of the proteins cited; added tags and fusions are not shown. Lines headed by an entry give the natural chain unless they say otherwise; changes in a name come on top.
UniProt P20152: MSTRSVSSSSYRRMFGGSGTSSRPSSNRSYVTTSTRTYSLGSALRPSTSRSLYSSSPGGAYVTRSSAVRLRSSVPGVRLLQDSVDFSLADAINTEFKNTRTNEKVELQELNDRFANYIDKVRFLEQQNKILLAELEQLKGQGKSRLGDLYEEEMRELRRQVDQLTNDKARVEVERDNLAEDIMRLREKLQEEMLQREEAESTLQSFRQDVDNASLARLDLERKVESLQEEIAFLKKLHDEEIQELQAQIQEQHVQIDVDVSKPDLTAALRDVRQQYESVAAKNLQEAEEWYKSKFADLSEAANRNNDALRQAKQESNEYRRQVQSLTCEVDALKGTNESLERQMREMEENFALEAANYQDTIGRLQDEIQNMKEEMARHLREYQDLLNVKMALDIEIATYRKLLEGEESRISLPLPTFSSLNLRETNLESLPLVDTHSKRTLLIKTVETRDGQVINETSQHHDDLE
UniProt P63330: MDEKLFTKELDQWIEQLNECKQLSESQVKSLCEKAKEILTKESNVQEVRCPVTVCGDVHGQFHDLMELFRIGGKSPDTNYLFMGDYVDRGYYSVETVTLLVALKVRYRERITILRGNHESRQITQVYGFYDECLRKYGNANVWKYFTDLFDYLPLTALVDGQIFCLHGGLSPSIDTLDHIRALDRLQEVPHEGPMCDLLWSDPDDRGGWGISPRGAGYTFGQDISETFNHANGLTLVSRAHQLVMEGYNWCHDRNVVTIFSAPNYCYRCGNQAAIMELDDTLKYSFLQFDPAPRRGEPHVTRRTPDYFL

Target: vimentin (mouse (endogenous in tracheal rings)) (UniProt P20152)
Experiment: co-IP; extracts of mouse tracheal rings, unstimulated or stimulated with ACh (10^-4 M, 5 min); incubated overnight with antibody, protein A-Sepharose beads; washed four times in 50 mM Tris-HCl pH 7.6, 150 mM NaCl, 0.1 % Triton X-100; immunoblot

In the case of “protein phosphatase 2A (from UniProt P63330) (enzyme)”, the binding is reported as “binds weakly”.
